Experimental data taken from PubChem BioAssay AID540256 (National Center for Advancing Translational Sciences (NCATS), 2011).
Values joined by “and” are separate entries in the source; they are usually repeats but may differ in a detail not shown here. Equal entries are not always repeated. Screen size: about 300,000 compounds; about 3,700 (1.2%) were called active. Inconclusive results, whose numbers are uncertain, are shown with a selection of clear calls. The call rests on the fitted dose curve; tested in HEK293 cells. A potency beside an inconclusive call is a rough fit, not a confirmed value.

Assay: qHTS for Inhibitors of binding or entry into cells for Lassa Virus; further: nearly all actives have a fitted effect of over 50% in size
Conditions: Lassa virus pseudotype entry inhibition, cell reporter; activity change, negative = inhibition: at 37.9 µM (top of the series) unless noted
On the % scale 0 is the no-effect control and ±100 the full control effect; potency means the concentration at half of the fitted maximal effect.

SMILES | activity change, negative = inhibition | Potency
CCOC(=O)c1cc(S(=O)(=O)NCc2ccccc2)[nH]n1 | inactive: 4.77% [at 46.1 µM] | –
Cc1cccc(NC(=S)N2CCN(c3cc(C)ccc3C)CC2)c1 | – | inconclusive: 7.08 µM [inhibitor, full curve, poor fit]
O=C(Cn1c(=O)ccc2cc(S(=O)(=O)N3CCCC3)ccc21)NCc1ccc(Cl)cc1 | – | inconclusive: 3.55 µM [inhibitor, single point]
O=C(NCCC1=CCCCC1)C1CCC(CNS(=O)(=O)c2ccccc2)CC1 (stereo unspecified) | – | inconclusive: 29.1 µM [inhibitor, single point]
COc1cc(C2c3cc4c(cc3OC(N3CCOCC3)C2C)OCO4)cc(OC)c1OC(C)=O (stereo unspecified) | – | inconclusive: 22.4 µM [inhibitor, single point]
CCN(CC)S(=O)(=O)c1ccc2nc(NC(=O)c3cccnc3)sc2c1 | inactive: 6.27% [at 46.1 µM] | –
Cn1c(SCC(=O)N/N=C/c2ccc([N+](=O)[O-])s2)nnc1-c1ccc(Cl)cc1 | – | inconclusive: 15.8 µM [inhibitor, single point]
CC(C)(C)c1ccc(S(=O)(=O)NCc2ccc3c(c2)CCN3C(=O)c2ccccc2)cc1 | – | inconclusive: 7.08 µM [inhibitor, single point]
COc1ccccc1-c1cc(C(F)(F)F)nc(S(=O)(=O)CCCC(=O)N2CCOCC2)n1 | – | active: 12.6 µM
CC[C@H]1CN2CCc3cc(OC)c(OC)cc3[C@@H]2C[C@@H]1C[C@H]1NCCc2cc(OC)c(OC)cc21 | – | active: 580 nM and active: 184 nM
COc1ccc(N2C(=O)CC(N3CCN(c4nc5ccccc5s4)CC3)C2=O)cc1 (stereo unspecified) | – | inconclusive: 29.1 µM [activator, single point]
COc1ccc(-c2coc3cc4oc(=O)cc(-c5ccccc5)c4cc23)cc1F | – | inconclusive: 2.82 µM [inhibitor, partial curve, poor fit]
Cc1ccnc(NC(=O)Nc2cccc(F)c2)n1 | – | inconclusive: 18.3 µM [inhibitor, single point]
CCOc1ccc(NC(=O)CSc2nc(-c3ccc(OC)cc3)nc3c2Cc2c(CO)cnc(C)c2O3)cc1 | inactive: -1.26% [at 46.1 µM] | –
O=S(=O)(Nc1ccc(Cl)cn1)c1cnc(Cl)c(Br)c1 | – | inconclusive: 35.5 µM [inhibitor, single point]
O=C(NCCc1ccc(Cl)cc1)Nc1cccc(Cl)c1 | – | inconclusive: 35.5 µM [inhibitor, single point]
NC(=O)C1CCN(C(=O)CNC(=O)c2ccccc2)CC1 | inactive: 18.7% | –
COCCn1c(=O)[nH]c2cc(C(=O)NCc3ccccc3Cl)ccc2c1=O | – | inconclusive: 1.12 µM [inhibitor, full curve, poor fit]
NC(=O)c1cc(Cl)ccc1OCC(=O)NC1CC1 | – | inconclusive: 31.6 µM [activator, single point]
Cc1ccccc1C(=O)NC(=S)Nc1ccc(N2CCN(C(=O)c3ccccc3)CC2)cc1 | – | inconclusive: 11.2 µM [inhibitor, partial curve, poor fit]
CC1CCCC(C)N1S(=O)(=O)c1ccc(NC(=O)CCN2C(=O)C3CC=CCC3C2=O)cc1 (stereo unspecified) | inactive: 5.18% [at 46.1 µM] | –
Cc1cc(Nc2ccc(C)c(Cl)c2)n2nc(Cc3ccccc3)nc2n1 | – | inconclusive: 1.12 µM [inhibitor, partial curve, poor fit]
COc1ccccc1CNS(=O)(=O)c1c(C)nc2scc(C)n2c1=O | inactive: 0.715% [at 46.1 µM] | –

Quoted at random: three records from the list, in no set order.
SMILES | activity change, negative = inhibition | Potency
NC(=O)C1CCN(C(=O)CNC(=O)c2ccccc2)CC1 | inactive: 18.7% | –
COc1cc(C2c3cc4c(cc3OC(N3CCOCC3)C2C)OCO4)cc(OC)c1OC(C)=O (stereo unspecified) | – | inconclusive: 22.4 µM [inhibitor, single point]
COCCn1c(=O)[nH]c2cc(C(=O)NCc3ccccc3Cl)ccc2c1=O | – | inconclusive: 1.12 µM [inhibitor, full curve, poor fit]

Continuation:

SMILES | activity change, negative = inhibition | Potency
COc1ccc(C(=O)Nc2ccc([N+](=O)[O-])cn2)cc1OC | inactive: 0.501% | –
O=C(CCS(=O)(=O)c1ccccc1)NC1CCCC1 | – | inconclusive: 11.2 µM [activator, partial curve, poor fit]
Oc1c(C=Nc2cccnc2)sc2ccccc12 | inactive: -1.09% | –
COc1ccc(-c2cc(C(=O)N3CCCC(C(F)(F)F)C3)c3ccccc3n2)cc1OC (stereo unspecified) | – | inconclusive: 12.6 µM [inhibitor, partial curve]
CCN(c1ncnc2c1cnn2-c1ccc(C)cc1)C1CCCCC1 | – | inconclusive: 35.5 µM [activator, single point]
Clc1ccc(-c2csc(N3CCOCC3)n2)cc1 | – | inconclusive: 7.08 µM [activator, single point]
CC(C)Cn1c(SCC(=O)N2CCc3ccccc3C2)nc2cc(Cl)ccc2c1=O | inactive: -0.431% | –
COc1ccc2[nH]c(O)c(NC(C)=O)c2c1 | – | inconclusive: 1 µM [inhibitor, single point]
CCOCCCNCc1ccc(Cl)cc1 | – | inconclusive: 3.16 µM [activator, full curve]
Cc1ccc(NC(=O)C2CC2c2ccccc2)c([N+](=O)[O-])c1 (stereo unspecified) | – | inconclusive: 22.4 µM [inhibitor, single point]
CCOc1cc(S(=O)(=O)NCc2ccc(OC)cc2)c(OCC)cc1-n1cnnn1 | inactive: -29% | –
Cc1cc(NC(=O)COC(=O)Cn2[nH]c(=O)c3ccccc3c2=O)c([N+](=O)[O-])cc1C | inactive: 4.2% | –
C/C(CC(=O)Nc1ccc2c(c1)OCCO2)=N\NC(=O)Cc1ccccc1 | inactive: 14.9% [at 46.1 µM] | –
O=[N+]([O-])c1cccc(CNC2CCCCCC2)c1 | inactive: -10.4% | –
Cc1ccc(NC(=O)N2CCC(C(=O)NCCC3=CCCCC3)CC2)cc1 | – | inconclusive: 0.366 µM [inhibitor, partial curve, poor fit]
COCCNC(=O)C1CCN(S(=O)(=O)c2ccc3c(c2)OCCO3)CC1 | – | inconclusive: 0.398 µM [inhibitor, single point]
Cc1cc(N2C(=O)C(=O)/C(=C(/O)c3ccc(F)cc3)C2c2ccc(Cl)cc2)no1 (stereo unspecified) | inactive: 28.6% | –
CC(C)(C)C(=O)C(Oc1ccc(Cl)cc1)n1cncn1 (stereo unspecified) | inactive: -2.27% | –
CC(=O)N1c2nc(C(C)C)nn2C2(CCCCC2)[C@@H]2CCCC[C@@H]21 | inactive: 17.8% [at 46.1 µM] | –
CC(NC(=O)c1ccccc1OC(F)F)c1ccc(-n2ccnc2)cc1 (stereo unspecified) | inactive: 0.037% | –
CC(=O)Nc1cc(Cl)ccc1OS(=O)(=O)c1ccc(C)cc1 | – | inconclusive: 2.82 µM [inhibitor, single point]
Cn1c(SCC(=O)Nc2ccc(C(=O)O)cc2)nc2scc(-c3ccccc3Cl)c2c1=O | inactive: 0.0078% [at 46.1 µM] | –
O=C(CNC(=O)c1cccc(Br)c1)N/N=C/c1cccnc1 | inactive: -3.21% [at 46.1 µM] | –
